# Laboratory results taken from PMC10384470.
# Protein sequences, listed by entry. Tags and fused reporters are not part of them. Residues count along the entry.
# UniProt P08191, residues 22-181: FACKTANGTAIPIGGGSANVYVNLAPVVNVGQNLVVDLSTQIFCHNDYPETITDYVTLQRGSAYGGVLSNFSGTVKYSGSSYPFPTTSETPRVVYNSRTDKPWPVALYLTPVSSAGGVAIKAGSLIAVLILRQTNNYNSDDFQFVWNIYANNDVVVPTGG
# No constants are given. Whether binding was seen depends on the method and setting. Some binding calls cover weakened binding; strength is not graded here.
# Biological target: N-terminal domain of E. coli FimH with 3′-FLAG-tag, displayed on the surface of Lactobacillus acidophilus GAD42 (plasmid pD003) (E. coli) (UniProt P08191)
# Assay: SDS-PAGE and Western blot; homogenised rLA in reducing sample buffer, 4-20% SDS-PAGE, anti-FLAG-tag Western blot; monomer band at 44 kDa and an additional band
substance,measurement,value
"N-terminal domain of E. coli FimH with 3′-FLAG-tag, displayed on the surface of Lactobacillus acidophilus GAD42 (plasmid pD003) (from UniProt P08191 22-181) (domain or fragment)",binding,binds
